# Source: the supplement of paper PMC12024529
# Where a name gives a salt, the structure may show the parent alone. The list shows a part of the results. Part of the spread comes from offsets between plates or batches.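 Wild-type or misfolding-prone missense mutant B-domain-deleted factor VIII, fused to Gaussia luciferase, is stably expressed in HEK293 lines. Each score is (mean triplicate-well luminescence minus DMSO mean) divided by DMSO standard deviation. Hits score at least 2; lower scores could stem from decreased secretion or poorer cell viability.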
# System: HEK293 WT BDD-FVIII-Gluc
# Assay: secreted FVIII-Gluc luciferase Z-score vs DMSO control; higher = more FVIII-Gluc secretion
# Settings: 5 µM; 24 h
row,SMILES,secreted FVIII-Gluc luciferase Z-score
1,CC1(C)O[C@@H]2C[C@H]3[C@@H]4CCC5=CC(=O)C=C[C@]5(C)[C@@]4(F)[C@@H](O)C[C@]3(C)[C@]2(C(=O)CO)O1 [Triamcinolone Acetonide],active: 9.93
2,COC(=O)/C=C/C(=O)OC [Dimethyl Fumarate],inactive: -8.82
3,CN1C2CCC1CC(OC(=O)C(O)c1ccccc1)C2 (centres undefined) [Homatropine Bromide],inactive: -0.639
4,CCc1cc2c(cc1CC)CC(NC[C@H](O)c1ccc(O)c3[nH]c(=O)ccc13)C2 [Indacaterol Maleate],active: 2.06
5,O=C(O)C[C@H](O)C[C@H](O)/C=C/c1c(C2CC2)nc2ccccc2c1-c1ccc(F)cc1 [Pitavastatin calcium (Livalo)],inactive: -7.76
6,CCCCc1ncc(/C=C(\Cc2cccs2)C(=O)O)n1Cc1ccc(C(=O)O)cc1 [Eprosartan Mesylate],active: 3.76
7,CN(Cc1cnc2nc(N)nc(N)c2n1)c1ccc(C(=O)N[C@@H](CCC(=O)O)C(=O)O)cc1 [Abitrexate (Methotrexate)],inactive: -3.6
8,CC(C)(C)CC(C)(C)c1ccc(O)c(Cc2ccc(Cl)cc2Cl)c1 [Clofoctol],inactive: -1.51
9,COc1ccc(C2CNC(=O)C2)cc1OC1CCCC1 (centres undefined) [Rolipram],inactive: -14.1
10,O=C(Nc1ccccc1)c1ccccc1O [Salicylanilide],inactive: 1.04
11,CN(C)CCc1c[nH]c2ccc(C[C@H]3COC(=O)N3)cc12 [Zolmitriptan (Zomig)],inactive: -1.35
12,C[C@]12C=CC(=O)C=C1CC[C@H]1[C@@H]3C[C@@H](O)[C@](O)(C(=O)CO)[C@@]3(C)C[C@H](O)[C@@]12F [Triamcinolone (Aristocort)],inactive: 1.76
13,CCN(CC)CC(=O)Nc1c(C)cccc1C [Lidocaine (Alphacaine)],inactive: -3.11
14,O=C(c1ccc(OCCN2CCCCC2)cc1)c1c(-c2ccc(O)cc2)sc2cc(O)ccc12 [Evista (Raloxifene Hydrochloride)],inactive: 1.18
15,O=C1CCc2ccc(OCCCCN3CCN(c4cccc(Cl)c4Cl)CC3)cc2N1 [Aripiprazole (Abilify)],inactive: -1.31
16,CN1CCC[C@@H]1CCO[C@](C)(c1ccccc1)c1ccc(Cl)cc1 [Clemastine Fumarate],inactive: -2.76
17,CS(=O)(=O)c1ccc(C(=O)Nc2ccc(Cl)c(-c3ccccn3)c2)c(Cl)c1 [Vismodegib (GDC-0449)],inactive: 1.31
18,CCCN(CCC)S(=O)(=O)c1ccc(C(=O)O)cc1 [Probenecid (Benemid)],inactive: -0.0821
19,NC(=O)c1ncn([C@@H]2O[C@H](CO)[C@@H](O)[C@H]2O)c1N [Acadesine],inactive: -2.7
20,O=C(O)CCc1nc(-c2ccccc2)c(-c2ccccc2)o1 [Oxaprozin],inactive: -1.08
21,CCOc1ccc2ccccc2c1C(=O)N[C@@H]1C(=O)N2[C@@H]1SC(C)(C)[C@@H]2C(=O)O [nafcillin sodium monohydrate],inactive: -0.997
22,CN(C)CCCN1c2ccccc2Sc2ccc(C(F)(F)F)cc21 [Triflupromazine HCl],inactive: -1.36
23,Clc1ccc(CSC(Cn2ccnc2)c2ccc(Cl)cc2Cl)cc1 (centres undefined) [Sulconazole Nitrate],inactive: -1.85
24,C#C[C@]1(O)CC[C@H]2[C@@H]3CCC4=CC(=O)CC[C@@H]4[C@H]3CC[C@@]21CC [Levonorgestrel (Levonelle)],inactive: -2.35
25,CC1(C)S[C@@H]2[C@H](NC(=O)[C@H](N)c3ccccc3)C(=O)N2[C@H]1C(=O)O [Ampicillin sodium],inactive: -0.936
26,CC(C(=O)O)c1ccc2c(c1)Cc1cccnc1O2 (centres undefined) [Pranoprofen],inactive: -0.41

# System: HEK293 p.N1941S BDD-FVIII-Gluc
# Assay: as above
# Settings: 5 µM; 24 h
row,SMILES,secreted FVIII-Gluc luciferase Z-score
1,CCN(Cc1ccncc1)C(=O)C(CO)c1ccccc1 (centres undefined) [Tropicamide],inactive: -1.68
2,C=Cc1c(C)c2cc3nc(cc4[nH]c(cc5nc(cc1[nH]2)C(C)=C5CCC(=O)O)c(CCC(=O)OC)c4C)C1(C)C3=CC=C(C(=O)OC)C1C(=O)OC (centres undefined) [Verteporfin (Visudyne)],inactive: -4.2
3,CCCCNc1ccc(C(=O)OCCN(C)C)cc1 [Tetracaine hydrochloride (Pontocaine)],inactive: -1.33
4,O=C(O)/C=C/c1ccc(Cn2ccnc2)cc1 [Ozagrel HCl],inactive: -1.38
5,Cc1cc(NC(=O)C2=C(O)c3ccccc3S(=O)(=O)N2C)no1 [Isoxicam],inactive: 1.41
6,C#C[C@]1(O)CC[C@H]2[C@@H]3CCc4cc(OC)ccc4[C@H]3CC[C@@]21C [Mestranol],inactive: -0.0232
7,O=C(O)CSCC(=O)NC1CCSC1=O (centres undefined) [Erdosteine],inactive: -0.8
8,CC(=O)OCC[N+](C)(C)C [Acetylcholine chloride],inactive: -0.334
9,CC(C)NCC(O)COc1cccc2ccccc12 (centres undefined) [Propranolol HCl],inactive: -1.24
10,COC(=O)N[C@H](C(=O)N[C@@H](Cc1ccccc1)[C@@H](O)CN(Cc1ccc(-c2ccccn2)cc1)NC(=O)[C@@H](NC(=O)OC)C(C)(C)C)C(C)(C)C [Atazanavir sulfate],inactive: -1.7
11,Oc1ccc(OC2CCCCO2)cc1 (centres undefined) [Deoxyarbutin],inactive: -1.59
12,NC(=O)N1c2ccccc2CC(=O)c2ccccc21 [Oxcarbazepine],inactive: 0.151
13,CC1(C)O[C@@H]2C[C@H]3[C@@H]4CCC5=CC(=O)C=C[C@]5(C)[C@@]4(F)[C@@H](O)C[C@]3(C)[C@]2(C(=O)CO)O1 [Triamcinolone Acetonide],active: 7.39
14,COC(=O)/C=C/C(=O)OC [Dimethyl Fumarate],inactive: -2.52
15,CN1C2CCC1CC(OC(=O)C(O)c1ccccc1)C2 (centres undefined) [Homatropine Bromide],inactive: -0.308
16,CCc1cc2c(cc1CC)CC(NC[C@H](O)c1ccc(O)c3[nH]c(=O)ccc13)C2 [Indacaterol Maleate],inactive: -0.561
17,O=C(O)C[C@H](O)C[C@H](O)/C=C/c1c(C2CC2)nc2ccccc2c1-c1ccc(F)cc1 [Pitavastatin calcium (Livalo)],inactive: -4.25
18,CCCCc1ncc(/C=C(\Cc2cccs2)C(=O)O)n1Cc1ccc(C(=O)O)cc1 [Eprosartan Mesylate],inactive: -0.243
19,CN(Cc1cnc2nc(N)nc(N)c2n1)c1ccc(C(=O)N[C@@H](CCC(=O)O)C(=O)O)cc1 [Abitrexate (Methotrexate)],inactive: -11

row,SMILES,secreted FVIII-Gluc luciferase Z-score
1,CC(C)(C)CC(C)(C)c1ccc(O)c(Cc2ccc(Cl)cc2Cl)c1 [Clofoctol],inactive: 1.48
2,COc1ccc(C2CNC(=O)C2)cc1OC1CCCC1 (centres undefined) [Rolipram],inactive: -1.08
3,O=C(Nc1ccccc1)c1ccccc1O [Salicylanilide],inactive: 0.59
4,CN(C)CCc1c[nH]c2ccc(C[C@H]3COC(=O)N3)cc12 [Zolmitriptan (Zomig)],inactive: 0.153
5,C[C@]12C=CC(=O)C=C1CC[C@H]1[C@@H]3C[C@@H](O)[C@](O)(C(=O)CO)[C@@]3(C)C[C@H](O)[C@@]12F [Triamcinolone (Aristocort)],active: 4.32
6,CCN(CC)CC(=O)Nc1c(C)cccc1C [Lidocaine (Alphacaine)],inactive: -0.579
7,O=C(c1ccc(OCCN2CCCCC2)cc1)c1c(-c2ccc(O)cc2)sc2cc(O)ccc12 [Evista (Raloxifene Hydrochloride)],inactive: 1.52
8,O=C1CCc2ccc(OCCCCN3CCN(c4cccc(Cl)c4Cl)CC3)cc2N1 [Aripiprazole (Abilify)],inactive: -2.99
9,CN1CCC[C@@H]1CCO[C@](C)(c1ccccc1)c1ccc(Cl)cc1 [Clemastine Fumarate],inactive: -3.21
10,CS(=O)(=O)c1ccc(C(=O)Nc2ccc(Cl)c(-c3ccccn3)c2)c(Cl)c1 [Vismodegib (GDC-0449)],inactive: 0.914
11,CCCN(CCC)S(=O)(=O)c1ccc(C(=O)O)cc1 [Probenecid (Benemid)],inactive: -1.9
12,NC(=O)c1ncn([C@@H]2O[C@H](CO)[C@@H](O)[C@H]2O)c1N [Acadesine],inactive: -1.13
13,O=C(O)CCc1nc(-c2ccccc2)c(-c2ccccc2)o1 [Oxaprozin],inactive: -0.103
14,CCOc1ccc2ccccc2c1C(=O)N[C@@H]1C(=O)N2[C@@H]1SC(C)(C)[C@@H]2C(=O)O [nafcillin sodium monohydrate],inactive: 0.148
15,CN(C)CCCN1c2ccccc2Sc2ccc(C(F)(F)F)cc21 [Triflupromazine HCl],inactive: -0.0724
16,Clc1ccc(CSC(Cn2ccnc2)c2ccc(Cl)cc2Cl)cc1 (centres undefined) [Sulconazole Nitrate],inactive: -0.893
17,C#C[C@]1(O)CC[C@H]2[C@@H]3CCC4=CC(=O)CC[C@@H]4[C@H]3CC[C@@]21CC [Levonorgestrel (Levonelle)],inactive: 1.02
18,CC1(C)S[C@@H]2[C@H](NC(=O)[C@H](N)c3ccccc3)C(=O)N2[C@H]1C(=O)O [Ampicillin sodium],inactive: 0.831
19,CC(C(=O)O)c1ccc2c(c1)Cc1cccnc1O2 (centres undefined) [Pranoprofen],inactive: 0.111
